Data: the supplement of paper PMC10849652
This is one part of the list.

The chains behind the UniProt entries cited, without tags or fusion partners. Where a name states a change or a piece, a line headed by the entry shows the natural chain unless it says otherwise.
UniProt O14744, whole entry, looked up: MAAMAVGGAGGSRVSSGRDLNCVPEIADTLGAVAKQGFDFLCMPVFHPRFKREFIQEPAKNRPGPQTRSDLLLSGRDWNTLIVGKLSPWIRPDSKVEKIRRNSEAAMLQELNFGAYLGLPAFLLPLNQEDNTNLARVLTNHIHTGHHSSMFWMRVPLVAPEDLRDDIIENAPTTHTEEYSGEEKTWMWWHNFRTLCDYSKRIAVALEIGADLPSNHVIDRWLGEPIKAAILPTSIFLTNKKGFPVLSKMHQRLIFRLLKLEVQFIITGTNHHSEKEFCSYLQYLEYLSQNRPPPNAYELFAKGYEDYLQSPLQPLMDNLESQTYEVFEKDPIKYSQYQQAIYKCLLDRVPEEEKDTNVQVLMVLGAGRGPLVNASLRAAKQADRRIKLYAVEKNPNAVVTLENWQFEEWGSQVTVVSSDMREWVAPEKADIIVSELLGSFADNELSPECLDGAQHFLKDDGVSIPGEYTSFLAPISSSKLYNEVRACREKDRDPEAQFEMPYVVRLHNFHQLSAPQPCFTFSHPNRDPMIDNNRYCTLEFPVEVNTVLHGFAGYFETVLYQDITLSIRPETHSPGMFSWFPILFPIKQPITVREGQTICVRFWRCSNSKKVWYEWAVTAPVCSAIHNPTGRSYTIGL
UniProt P41743, whole entry, looked up: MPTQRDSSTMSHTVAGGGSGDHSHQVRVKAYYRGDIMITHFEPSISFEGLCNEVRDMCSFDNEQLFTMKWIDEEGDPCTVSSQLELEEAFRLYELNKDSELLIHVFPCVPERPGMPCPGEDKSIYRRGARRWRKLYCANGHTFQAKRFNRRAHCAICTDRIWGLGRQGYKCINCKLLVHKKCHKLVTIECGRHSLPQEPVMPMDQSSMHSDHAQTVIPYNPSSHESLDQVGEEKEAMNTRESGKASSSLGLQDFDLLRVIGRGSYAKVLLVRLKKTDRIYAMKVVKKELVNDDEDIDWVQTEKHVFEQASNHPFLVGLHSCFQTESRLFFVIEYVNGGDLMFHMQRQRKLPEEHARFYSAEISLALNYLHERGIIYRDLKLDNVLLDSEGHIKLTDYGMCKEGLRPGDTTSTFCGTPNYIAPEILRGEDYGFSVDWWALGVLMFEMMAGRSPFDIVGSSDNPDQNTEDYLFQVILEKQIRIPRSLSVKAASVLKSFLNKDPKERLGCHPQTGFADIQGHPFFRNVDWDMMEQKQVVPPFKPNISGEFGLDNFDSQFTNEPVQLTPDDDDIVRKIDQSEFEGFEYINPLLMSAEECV
UniProt O43663: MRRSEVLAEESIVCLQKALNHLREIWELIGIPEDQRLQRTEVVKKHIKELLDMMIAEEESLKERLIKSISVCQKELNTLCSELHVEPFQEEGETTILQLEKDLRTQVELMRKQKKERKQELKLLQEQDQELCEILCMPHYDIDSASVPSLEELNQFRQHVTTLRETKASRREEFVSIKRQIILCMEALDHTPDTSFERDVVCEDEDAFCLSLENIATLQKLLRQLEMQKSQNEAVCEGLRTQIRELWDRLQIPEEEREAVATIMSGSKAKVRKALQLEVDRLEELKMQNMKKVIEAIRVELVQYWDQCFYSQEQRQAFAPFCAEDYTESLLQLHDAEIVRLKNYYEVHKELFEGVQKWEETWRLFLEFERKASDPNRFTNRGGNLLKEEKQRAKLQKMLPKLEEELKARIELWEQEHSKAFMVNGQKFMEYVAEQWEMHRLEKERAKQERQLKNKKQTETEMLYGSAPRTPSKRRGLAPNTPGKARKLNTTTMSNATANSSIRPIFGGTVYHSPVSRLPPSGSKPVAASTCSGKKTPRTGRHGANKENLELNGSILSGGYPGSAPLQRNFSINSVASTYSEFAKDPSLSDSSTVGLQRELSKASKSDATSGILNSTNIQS
UniProt P78527, whole entry, looked up: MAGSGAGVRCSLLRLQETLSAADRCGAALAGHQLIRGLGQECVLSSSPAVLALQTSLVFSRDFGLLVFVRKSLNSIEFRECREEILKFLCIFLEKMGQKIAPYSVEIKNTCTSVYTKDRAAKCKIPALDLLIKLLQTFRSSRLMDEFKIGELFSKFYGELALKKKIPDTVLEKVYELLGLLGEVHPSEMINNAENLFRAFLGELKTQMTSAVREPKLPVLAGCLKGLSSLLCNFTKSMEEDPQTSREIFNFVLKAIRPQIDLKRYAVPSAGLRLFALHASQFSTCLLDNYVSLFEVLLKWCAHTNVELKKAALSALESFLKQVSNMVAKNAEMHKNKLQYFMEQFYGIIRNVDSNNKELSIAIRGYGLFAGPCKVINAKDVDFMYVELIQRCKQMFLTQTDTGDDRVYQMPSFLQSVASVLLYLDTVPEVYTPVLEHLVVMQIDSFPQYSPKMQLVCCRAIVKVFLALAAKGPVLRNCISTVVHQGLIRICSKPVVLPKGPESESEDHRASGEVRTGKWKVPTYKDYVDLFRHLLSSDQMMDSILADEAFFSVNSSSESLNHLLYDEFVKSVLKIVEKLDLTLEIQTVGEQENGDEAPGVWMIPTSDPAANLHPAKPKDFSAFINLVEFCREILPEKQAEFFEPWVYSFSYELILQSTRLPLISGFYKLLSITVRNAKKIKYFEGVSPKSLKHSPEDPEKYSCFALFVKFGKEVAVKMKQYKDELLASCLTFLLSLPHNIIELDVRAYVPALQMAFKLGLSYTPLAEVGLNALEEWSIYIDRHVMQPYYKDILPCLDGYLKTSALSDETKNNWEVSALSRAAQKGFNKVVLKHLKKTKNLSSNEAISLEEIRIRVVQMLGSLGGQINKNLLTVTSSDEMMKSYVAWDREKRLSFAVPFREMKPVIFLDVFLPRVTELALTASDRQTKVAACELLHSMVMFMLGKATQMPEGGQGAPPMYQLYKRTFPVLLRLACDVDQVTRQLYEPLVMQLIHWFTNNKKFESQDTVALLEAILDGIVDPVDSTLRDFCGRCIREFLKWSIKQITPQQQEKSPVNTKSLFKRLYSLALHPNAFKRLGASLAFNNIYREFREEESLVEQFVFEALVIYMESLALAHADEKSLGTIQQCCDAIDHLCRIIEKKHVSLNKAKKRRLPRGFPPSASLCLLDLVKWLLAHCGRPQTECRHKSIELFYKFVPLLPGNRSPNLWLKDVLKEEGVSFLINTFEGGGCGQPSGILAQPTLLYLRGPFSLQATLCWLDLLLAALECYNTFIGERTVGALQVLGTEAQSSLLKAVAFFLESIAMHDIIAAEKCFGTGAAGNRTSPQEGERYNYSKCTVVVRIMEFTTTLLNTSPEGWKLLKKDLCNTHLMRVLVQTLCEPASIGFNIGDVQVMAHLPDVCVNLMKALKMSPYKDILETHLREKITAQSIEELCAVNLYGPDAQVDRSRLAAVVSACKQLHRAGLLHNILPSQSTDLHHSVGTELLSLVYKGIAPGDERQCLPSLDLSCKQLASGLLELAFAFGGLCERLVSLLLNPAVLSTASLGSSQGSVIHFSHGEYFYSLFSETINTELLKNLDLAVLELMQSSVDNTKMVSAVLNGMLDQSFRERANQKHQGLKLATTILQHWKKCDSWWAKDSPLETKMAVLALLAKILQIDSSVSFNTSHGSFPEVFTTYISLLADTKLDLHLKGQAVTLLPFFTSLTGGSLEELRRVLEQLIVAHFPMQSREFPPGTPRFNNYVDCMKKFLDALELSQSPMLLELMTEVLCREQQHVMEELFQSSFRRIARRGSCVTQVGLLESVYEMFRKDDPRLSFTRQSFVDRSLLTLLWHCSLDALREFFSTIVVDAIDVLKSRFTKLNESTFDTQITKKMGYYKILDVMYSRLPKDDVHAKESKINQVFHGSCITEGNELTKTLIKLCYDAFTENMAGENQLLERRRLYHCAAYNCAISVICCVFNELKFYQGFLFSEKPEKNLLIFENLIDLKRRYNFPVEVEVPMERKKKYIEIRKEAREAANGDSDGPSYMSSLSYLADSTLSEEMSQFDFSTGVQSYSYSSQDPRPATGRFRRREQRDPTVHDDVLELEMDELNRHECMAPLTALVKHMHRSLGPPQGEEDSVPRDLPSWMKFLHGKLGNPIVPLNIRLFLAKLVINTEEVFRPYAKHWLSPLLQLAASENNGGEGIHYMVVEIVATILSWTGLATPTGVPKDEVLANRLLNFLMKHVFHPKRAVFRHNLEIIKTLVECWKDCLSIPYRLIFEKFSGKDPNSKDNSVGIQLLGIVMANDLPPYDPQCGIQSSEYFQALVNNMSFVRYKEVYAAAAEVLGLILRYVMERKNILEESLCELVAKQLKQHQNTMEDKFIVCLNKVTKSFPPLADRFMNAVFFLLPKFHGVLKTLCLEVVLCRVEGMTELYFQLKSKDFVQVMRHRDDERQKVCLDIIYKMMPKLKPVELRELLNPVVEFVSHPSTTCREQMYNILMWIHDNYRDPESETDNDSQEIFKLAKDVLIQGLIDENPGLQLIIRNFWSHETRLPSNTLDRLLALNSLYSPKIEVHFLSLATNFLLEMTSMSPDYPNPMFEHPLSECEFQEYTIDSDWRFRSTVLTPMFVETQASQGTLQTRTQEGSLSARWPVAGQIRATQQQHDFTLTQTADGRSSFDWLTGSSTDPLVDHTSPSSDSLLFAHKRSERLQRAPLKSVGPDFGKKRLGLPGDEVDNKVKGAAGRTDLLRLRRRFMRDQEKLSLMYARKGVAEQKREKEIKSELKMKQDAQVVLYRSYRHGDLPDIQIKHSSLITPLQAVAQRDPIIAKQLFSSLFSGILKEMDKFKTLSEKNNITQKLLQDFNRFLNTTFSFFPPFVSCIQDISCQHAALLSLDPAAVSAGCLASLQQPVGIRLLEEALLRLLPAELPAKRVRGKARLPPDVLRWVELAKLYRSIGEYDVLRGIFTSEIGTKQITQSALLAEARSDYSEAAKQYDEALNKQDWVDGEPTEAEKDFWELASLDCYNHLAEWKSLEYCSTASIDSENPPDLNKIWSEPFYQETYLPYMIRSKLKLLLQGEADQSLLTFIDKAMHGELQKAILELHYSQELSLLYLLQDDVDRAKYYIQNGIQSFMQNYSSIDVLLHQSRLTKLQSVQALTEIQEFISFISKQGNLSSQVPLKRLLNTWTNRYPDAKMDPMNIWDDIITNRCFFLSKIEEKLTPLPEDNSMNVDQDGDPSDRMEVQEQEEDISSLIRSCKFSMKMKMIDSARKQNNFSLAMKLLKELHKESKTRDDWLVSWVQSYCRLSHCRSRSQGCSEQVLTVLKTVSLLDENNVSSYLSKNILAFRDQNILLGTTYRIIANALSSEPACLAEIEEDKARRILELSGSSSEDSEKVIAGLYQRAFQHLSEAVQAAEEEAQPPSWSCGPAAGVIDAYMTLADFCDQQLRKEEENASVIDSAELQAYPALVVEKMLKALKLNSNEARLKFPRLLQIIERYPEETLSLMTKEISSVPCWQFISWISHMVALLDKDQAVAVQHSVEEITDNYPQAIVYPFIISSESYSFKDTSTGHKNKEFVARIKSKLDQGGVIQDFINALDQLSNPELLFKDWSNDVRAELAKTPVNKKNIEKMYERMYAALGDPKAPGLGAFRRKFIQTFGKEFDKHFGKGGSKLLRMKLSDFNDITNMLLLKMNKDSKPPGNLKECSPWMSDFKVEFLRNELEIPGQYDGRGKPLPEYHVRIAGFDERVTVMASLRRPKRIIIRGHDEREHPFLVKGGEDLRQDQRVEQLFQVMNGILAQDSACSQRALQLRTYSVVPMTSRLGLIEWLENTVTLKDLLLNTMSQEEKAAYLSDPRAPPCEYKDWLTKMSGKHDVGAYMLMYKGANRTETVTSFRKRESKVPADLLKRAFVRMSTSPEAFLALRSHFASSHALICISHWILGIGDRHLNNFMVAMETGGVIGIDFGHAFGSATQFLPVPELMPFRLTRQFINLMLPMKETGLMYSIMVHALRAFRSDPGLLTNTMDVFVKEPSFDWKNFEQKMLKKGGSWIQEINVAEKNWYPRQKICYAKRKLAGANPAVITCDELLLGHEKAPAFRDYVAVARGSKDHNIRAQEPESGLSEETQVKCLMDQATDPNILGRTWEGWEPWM
UniProt P13861, whole entry, looked up: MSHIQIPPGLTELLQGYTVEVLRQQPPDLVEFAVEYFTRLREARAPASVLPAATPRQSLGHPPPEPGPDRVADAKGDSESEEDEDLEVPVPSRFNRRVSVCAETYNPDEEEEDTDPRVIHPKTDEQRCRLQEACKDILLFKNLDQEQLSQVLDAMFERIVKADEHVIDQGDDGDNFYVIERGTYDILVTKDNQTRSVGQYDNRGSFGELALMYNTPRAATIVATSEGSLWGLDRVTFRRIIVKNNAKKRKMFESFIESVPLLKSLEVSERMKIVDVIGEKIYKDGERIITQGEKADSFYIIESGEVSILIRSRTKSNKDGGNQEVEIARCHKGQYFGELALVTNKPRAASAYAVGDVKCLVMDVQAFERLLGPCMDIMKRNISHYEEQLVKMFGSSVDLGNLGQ

Legend:
Test in all cases: log2 fold change, soluble protein after heating vs DMSO (PISA); higher = thermal stabilisation; K562 lysate, 10 uM; active = over 0.2 and 3.5 SD of the protein, either way, in both replicates (recomputed)
[1] = compound: NCC(=O)Nc1ccc(-n2nc(C(F)(F)F)cc2-c2ccc3c(ccc4ccccc43)c2)cc1
How it was run: (§1)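 Thermal stability, expressed as log-two fold change relative to solvent controls, is given from duplicates. Crude K562 extract in PBS pH 7.4 with 1 mM MgCl2, at 1 mg/mL protein, was treated with 10 μM compound for 30 min and heated in aliquots for 3 min across 48°C-58°C. After pooling, adjustment to 0.5% NP-40 at 4°C and centrifugation at 21,000xg for 90 min, supernatant protein was measured by TMTpro 16plex LC-MS/MS with channel sums equalised.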

vorinostat = compound: O=C(CCCCCCC(=O)Nc1ccccc1)NO [vorinostat]
How it was run: as §1

silmitasertib = compound: O=C(O)c1ccc2c(c1)nc(Nc1cccc(Cl)c1)c1ccncc12 [silmitasertib]
How it was run: as §1

[2] = compound: O=C1NC(=O)C(c2cnc3ccccn23)=C1c1cn2c3c(cc(F)cc13)CN(C(=O)N1CCCCC1)CC2
How it was run: as §1

entospletinib = compound: c1cn2cc(-c3ccc4cn[nH]c4c3)nc(Nc3ccc(N4CCOCC4)cc3)c2n1 [entospletinib]
How it was run: as §1

Measured: log2 fold change

PRDX3 (UniProt P30048)
inactive: [1] -0.012 | vorinostat 0.094 | silmitasertib -0.036 | [2] 0.015 | entospletinib -0.007

PPP1CC isoform 2 (UniProt P36873)
inactive: [1] 0.007 | vorinostat 0.027 | silmitasertib 0.006 | [2] -0.064 | entospletinib 0.001

PPP4R4 (UniProt Q6NUP7)
inactive: [1] 0.201 | vorinostat 0.323 | silmitasertib -0.155 | [2] 0.385 | entospletinib 0.163

PRMT5 (UniProt O14744)
inactive: [1] 0.012 | vorinostat 0.013 | silmitasertib -0.037 | [2] 0.001 | entospletinib 0.013

PRKCI (UniProt P41743)
inactive: [1] -0.032 | vorinostat -0.119 | silmitasertib -0.009 | [2] 0.006 | entospletinib 0.023

PRC1 (UniProt O43663)
inactive: [1] 0.012 | silmitasertib 0.046 | [2] -0.02 | entospletinib 0.023
active: vorinostat -0.387

PRKDC (UniProt P78527)
inactive: [1] -0.089 | [2] 0.207 | entospletinib 0.013
active: vorinostat -0.426 | silmitasertib 0.762

PRDX4 (UniProt Q13162)
inactive: [1] 0.027 | vorinostat 0.078 | silmitasertib 0.001 | [2] -0.04 | entospletinib 0.025

PRKAR2A (UniProt P13861)
inactive: [1] 0.005 | vorinostat -0.037 | silmitasertib -0.008 | [2] -0.06 | entospletinib -0.035
